Data taken from patent US20260070991A1.
These are yes or no findings as the source states them, for the method shown. Some results given as binding are weak or reduced against the parent protein; the word gives no strength.

By UniProt entry, the sequences of proteins in these tests, tags left out. Residues count along the entry.
UniProt P08069, residues 31-1367: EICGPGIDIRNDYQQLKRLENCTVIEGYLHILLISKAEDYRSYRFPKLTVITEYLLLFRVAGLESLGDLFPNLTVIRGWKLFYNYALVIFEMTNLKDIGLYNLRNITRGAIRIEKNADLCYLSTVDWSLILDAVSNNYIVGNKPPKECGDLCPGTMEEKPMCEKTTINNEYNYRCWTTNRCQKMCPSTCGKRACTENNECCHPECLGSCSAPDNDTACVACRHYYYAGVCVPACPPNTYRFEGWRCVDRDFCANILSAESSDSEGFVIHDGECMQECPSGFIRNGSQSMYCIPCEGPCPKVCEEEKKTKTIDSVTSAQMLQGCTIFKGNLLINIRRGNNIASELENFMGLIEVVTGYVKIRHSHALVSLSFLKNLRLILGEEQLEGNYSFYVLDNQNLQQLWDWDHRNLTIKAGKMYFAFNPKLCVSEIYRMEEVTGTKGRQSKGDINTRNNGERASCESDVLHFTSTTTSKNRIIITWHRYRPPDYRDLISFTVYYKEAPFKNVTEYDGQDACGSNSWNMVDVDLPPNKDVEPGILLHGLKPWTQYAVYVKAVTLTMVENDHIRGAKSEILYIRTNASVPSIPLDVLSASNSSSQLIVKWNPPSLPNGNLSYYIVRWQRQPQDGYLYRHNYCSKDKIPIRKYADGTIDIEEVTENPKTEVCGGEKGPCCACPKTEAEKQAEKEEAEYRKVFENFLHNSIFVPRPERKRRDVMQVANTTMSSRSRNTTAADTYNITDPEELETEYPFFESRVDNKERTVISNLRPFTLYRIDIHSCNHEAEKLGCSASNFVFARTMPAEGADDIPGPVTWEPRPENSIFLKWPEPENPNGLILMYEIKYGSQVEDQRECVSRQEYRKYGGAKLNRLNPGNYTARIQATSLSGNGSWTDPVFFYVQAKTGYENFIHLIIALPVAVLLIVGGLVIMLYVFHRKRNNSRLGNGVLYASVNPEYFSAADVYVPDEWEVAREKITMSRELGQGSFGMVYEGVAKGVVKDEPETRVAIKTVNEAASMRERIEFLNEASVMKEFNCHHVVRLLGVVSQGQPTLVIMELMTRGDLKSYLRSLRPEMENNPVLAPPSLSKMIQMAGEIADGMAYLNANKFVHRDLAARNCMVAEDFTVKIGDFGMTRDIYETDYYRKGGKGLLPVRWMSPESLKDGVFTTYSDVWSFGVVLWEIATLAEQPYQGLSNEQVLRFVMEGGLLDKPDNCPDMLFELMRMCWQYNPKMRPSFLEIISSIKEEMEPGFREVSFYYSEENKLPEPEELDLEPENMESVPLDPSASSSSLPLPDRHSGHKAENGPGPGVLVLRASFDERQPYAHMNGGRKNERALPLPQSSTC

Molecular target: insulin-like growth factor 1 receptor (IGF-1R) on human peripheral blood mononuclear cells (human) (UniProt P08069)
Experiment: receptor occupancy by flow cytometry on PBMCs of healthy participants after IV or SC dosing (Phase I SAD study)

B1: lonigutamab (antibody, V domains shown)
VH: QVQLVQSGAEVKKPGASVKVSCKASGYTFTSYYIHWVRQAPGQGLEWMGWIWPGDGSTKYAQKFQGRVTMTRDTSTSTVYMELSSLRSEDTAVYFCASPMITPNYAMDYWGQGTLVTVSS
VL: DIQMTQSPSSLSASVGDRVTITCRASQDISKYLNWYQQKPGKAPKLLIYYTSRLQSGVPSRFSGRGSGTDYSLTISSLQPEDFATYFCQQGSTLPYTFGGGTKVEIK
binding: binds
